Experimental data as given in PubChem BioAssay AID504375 (National Center for Advancing Translational Sciences (NCATS), 2011).
The whole screen tested about 1,600 compounds, of which about 25 (2%) were called active. About 7% were inconclusive and are not listed. Calls follow the shape of the dose curve; as a rule, active = well fitted inhibition curve with a large enough effect; inconclusive = small, poorly fitted or top-dose-only effect, or effect the other way; inactive = no such curve, though single readings can be large or run the other way. The list shows a part of the results.

The chains behind the UniProt entries cited, without tags or fusion partners.
UniProt Q01196, whole entry, looked up: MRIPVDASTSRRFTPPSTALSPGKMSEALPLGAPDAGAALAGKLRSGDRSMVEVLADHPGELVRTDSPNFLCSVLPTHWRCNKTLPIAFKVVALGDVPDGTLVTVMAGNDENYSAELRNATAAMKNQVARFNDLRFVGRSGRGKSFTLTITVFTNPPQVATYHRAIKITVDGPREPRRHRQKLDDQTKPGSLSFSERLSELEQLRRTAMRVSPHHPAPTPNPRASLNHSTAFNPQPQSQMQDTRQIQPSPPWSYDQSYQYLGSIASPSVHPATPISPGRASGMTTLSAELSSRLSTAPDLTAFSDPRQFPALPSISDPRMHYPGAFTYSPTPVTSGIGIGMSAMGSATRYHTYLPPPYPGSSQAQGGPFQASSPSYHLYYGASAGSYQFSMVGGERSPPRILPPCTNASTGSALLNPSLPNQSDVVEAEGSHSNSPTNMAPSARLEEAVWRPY
UniProt Q13951, whole entry, looked up: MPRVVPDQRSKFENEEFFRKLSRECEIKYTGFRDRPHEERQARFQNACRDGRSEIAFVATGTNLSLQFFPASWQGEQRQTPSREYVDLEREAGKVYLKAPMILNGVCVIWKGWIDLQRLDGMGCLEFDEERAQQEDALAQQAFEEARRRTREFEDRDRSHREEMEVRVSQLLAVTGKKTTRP

These compounds were tested against Runt-related transcription factor 1 (Homo sapiens) + Core-binding factor subunit beta (Homo sapiens) (UniProt Q01196+Q13951) (assay: qHTS Assay for Compounds Blocking the Interaction Between CBF-beta and RUNX1 for the Treatment of Acute Myeloid Leukemia: Hit Validation with Orthogonal Assay). Conditions: CBFbeta-RUNX1 binding orthogonal assay, biochemical; series mostly up to 41 µM; activity change, negative = inhibition: at the top concentration.
How it was run: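 Compound was incubated for 30 min with biotin-RUNX1 plus His6-CBF-beta at 30 nM per protein. Binding was then detected by TR-FRET between terbium anti-His antibody and 5 nM streptavidin-XL665, read after 90 min, in the same buffer as the AlphaScreen primary assay.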
% is scaled to controls: 0 for no effect and ±100 for the full control effect.

Activity change, negative = inhibition, inactive:
COC(=O)Cc1[nH]c(=O)[nH]c1C(=O)OC 1.06%
COc1ccc(C(=O)CN2CCN(c3cc(C)nc4ccccc34)CC2)cc1 -6.56%
COC(=O)CC1C(=O)NC(C)=C1C(=O)OC (stereo unspecified) -18.1%
CCn1c(NC(=O)c2ccccc2F)c(-c2cccs2)c(=O)c2ccccc21 -0.942%
CC12CCC(C(=Nc3ccc(N=C4C(=O)C5(C)CCC4C5(C)C)cc3)C1=O)C2(C)C -23.8%
CCC(CC)NCCOC(=O)c1ccc([N+](=O)[O-])cc1 28.2%
O=[N+]([O-])c1ccc(Sc2ccccn2)nc1 55.4%
CCC(C)c1ccc(OCc2ccc(C(=O)OC)o2)cc1 (stereo unspecified) 5.36%
CCOC(=O)c1cn2nc(Oc3ccccc3)ccc2n1 9.4%
O=C(O)c1ccccc1C(=O)Nc1ccc(-n2ccc(C(F)(F)F)n2)cc1 -6.89%
[O-][N+]12CCCCC1CCCC2CO (stereo unspecified) -6.68%
CC(=O)Nc1ccc(Nc2cc(C(C)C)nc3c(-c4ccccc4)c(C)nn23)cc1 9.96%
CCOC(=O)c1cn[nH]c1NC(=S)Nc1ccccc1 -12.5%
COc1cc(/C=N/n2cc(-c3ccccc3)[nH]c2=S)cc(OC)c1O 23.5%
CCOC(=O)N1CCC(NS(=O)(=O)c2ccc(C)c(Cl)c2)CC1 -6.68%
Cc1nn(Cc2cccc(C(=O)NN)c2)c(C)c1Cl 7.88%
CCOC(=O)c1ccc(OC)c(OC)c1Cl 6.26%
O=C(Oc1c(-c2ccccc2)c(=O)n2c3c(cccc13)CC2)c1cccc([N+](=O)[O-])c1 29.9%
CC1SCC(NC(=O)c2ccccc2Cl)CS1 (stereo unspecified) -3.61%
CCOC(=O)c1c(CN2CCN(CCO)CC2)n(-c2ccccc2)c2cc(Br)c(O)cc12 4.21%
CCOC(=O)/C=C/c1nc(C(=O)OCC)c(C)c(=O)[nH]1 9.57%
COc1cccc(/C=N/NC(=O)C(C)Cn2cnc3ccccc32)c1 (stereo unspecified) 4.2%
Brc1ccc(Cn2c(-c3ccc(Br)o3)nc3ccccc32)o1 -42% [at 22.1 µM]
CN1CCN(CC(=O)Nc2c(C#N)cnn2-c2ccccc2)CC1 -2.51%
CCn1c(=O)c2c(nc3n2CCCN3c2cccc(C)c2)n(C)c1=O 1.04%
CC1(C)CC(=O)C2=C(C1)OC(N)=C(C#N)[C@@H]2c1ccccc1[N+](=O)[O-] 5.51%
COC(=O)CC1=C(C(=O)OC)[C@@H](c2ccccc2[N+](=O)[O-])C(C#N)=C(N)O1 11.6%
CC1(C)C(CC2OCC(CN3CCCCC3)O2)[C@H]2CC[C@@H]1C2 (stereo partly specified) -3.28%
NNC(=S)Nc1c(F)cc(F)cc1Br -12.6%
C/C(=N\NC(=O)Cn1nc(C)cc1C)c1ccc([N+](=O)[O-])cc1 53.1%
C[N+](C)(C)CCCN(Cc1ccc2c(c1)OCO2)C(=O)NC1CCCCC1 -2.08%
O=C(O)C1CC(c2ccccc2)=Nc2ccccc2S1 (stereo unspecified) -10.5%
c1ccc(CN(Cc2ccccc2)c2ncnc3c2nnn3Cc2ccccc2)cc1 14.9%
CN1CCC(CNC(=O)Nc2csc3ccccc23)CC1 7.24%
COc1ccc(CCN2C(=O)CSC2=Nc2ccc(C(C)C)cc2)cc1OC 0.538%
CCN(CC)C(=O)C12C(=O)Oc3ccccc3C1C2(C)C(=O)c1ccc(F)cc1 (stereo unspecified) 11.6%

Among those listed so far, these have a thiophene ring, fused or not.
Activity change, negative = inhibition, inactive:
CCn1c(NC(=O)c2ccccc2F)c(-c2cccs2)c(=O)c2ccccc21 -0.942%
CN1CCC(CNC(=O)Nc2csc3ccccc23)CC1 7.24%
